Laboratory results: publication PMC4004540
These are yes or no findings as the source states them, for the method shown. Binding seen in cells or lysates may run through a third protein. Some results given as binding are weak or reduced against the parent protein; the word gives no strength. For part of these data: Where a sequence is shown, tags or fusion partners need not be part of it. Blank lines part the entries; values can stand above or below the molecule they belong to.

By UniProt entry, the sequences of proteins in these tests, tags left out. Where a name states a change or a piece, a line headed by the entry shows the natural chain unless it says otherwise. Chains listed by the source or under a name are the forms on record and can include a tag or linker. Residues count along the entry.
UniProt P30051: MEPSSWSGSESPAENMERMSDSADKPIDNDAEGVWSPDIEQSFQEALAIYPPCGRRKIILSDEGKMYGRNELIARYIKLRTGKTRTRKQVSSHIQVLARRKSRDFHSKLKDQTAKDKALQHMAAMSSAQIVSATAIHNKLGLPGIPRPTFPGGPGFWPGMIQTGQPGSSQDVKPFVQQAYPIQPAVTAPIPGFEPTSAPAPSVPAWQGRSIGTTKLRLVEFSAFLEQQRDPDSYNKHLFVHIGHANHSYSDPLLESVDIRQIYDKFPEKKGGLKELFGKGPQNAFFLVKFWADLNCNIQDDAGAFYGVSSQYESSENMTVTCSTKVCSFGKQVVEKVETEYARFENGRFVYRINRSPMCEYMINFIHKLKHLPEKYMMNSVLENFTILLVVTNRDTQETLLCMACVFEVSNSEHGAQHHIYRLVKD
glutathione S-transferase fused to the TEA domain of mouse TEAD-1 (GST-TEA): residues 1-101 of P30051

What was measured:
[1] = biological target: T1, FLAG-tagged TRβ1 (pCMX-FLAG-rTRβ1) (UniProt P18113); experiment: co-IP; CV-1 cells co-transfected with FLAG-TRβ1 and 6myc-TEAD-1, with or without 1 µM T3 for 24 h; high-salt extract incubated with anti-FLAG M2 affinity gel in 150 mM NaCl, 20 mM Tris HCl pH 7.5, 0.3% Nonidet P-40 at 4°C overnight; Western blot with anti-c-myc
T1 sequence: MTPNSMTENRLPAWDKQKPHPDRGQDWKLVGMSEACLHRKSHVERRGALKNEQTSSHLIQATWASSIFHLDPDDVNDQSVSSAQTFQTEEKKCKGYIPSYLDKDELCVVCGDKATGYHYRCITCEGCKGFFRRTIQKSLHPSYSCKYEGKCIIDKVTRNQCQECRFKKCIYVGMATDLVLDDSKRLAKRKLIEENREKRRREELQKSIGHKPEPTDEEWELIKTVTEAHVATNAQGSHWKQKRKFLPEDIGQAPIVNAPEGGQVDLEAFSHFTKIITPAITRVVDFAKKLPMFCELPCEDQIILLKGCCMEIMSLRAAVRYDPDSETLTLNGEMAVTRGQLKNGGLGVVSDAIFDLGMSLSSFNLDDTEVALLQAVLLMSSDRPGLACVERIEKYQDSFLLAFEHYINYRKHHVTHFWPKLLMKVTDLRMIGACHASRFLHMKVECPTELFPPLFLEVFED

[2] = biological target: glutathione S-transferase fused to the TEA domain of mouse TEAD-1 (GST-TEA) (mouse) (UniProt P30051); experiment: pull-down; GST fusion protein on glutathione-Sepharose beads incubated with 35S-labeled in vitro translated protein in 150 mM NaCl, 20 mM Tris HCl pH 7.5, 0.3% Nonidet P-40, 1 mM dithiothreitol for 3 h at 4°C; with or without 1 µM T3 for TRα1 and TRβ1; autoradiography; only the target purified

binding [1]: binds
Molecule: N-terminal six tandem myc-tagged mouse TEAD-1 (6myc-TEAD-1), expressed in CV-1 cells (from UniProt P30051 1-426)

binding [2]: binds
B1: human TRβ1 (wild type), in vitro translated (receptor, UniProt P10828-1 1-461)
chain: MTPNSMTENGLTAWDKPKHCPDREHDWKLVGMSEACLHRKSHSERRSTLKNEQSSPHLIQTTWTSSIFHLDHDDVNDQSVSSAQTFQTEEKKCKGYIPSYLDKDELCVVCGDKATGYHYRCITCEGCKGFFRRTIQKNLHPSYSCKYEGKCVIDKVTRNQCQECRFKKCIYVGMATDLVLDDSKRLAKRKLIEENREKRRREELQKSIGHKPEPTDEEWELIKTVTEAHVATNAQGSHWKQKRKFLPEDIGQAPIVNAPEGGKVDLEAFSHFTKIITPAITRVVDFAKKLPMFCELPCEDQIILLKGCCMEIMSLRAAVRYDPESETLTLNGEMAVTRGQLKNGGLGVVSDAIFDLGMSLSSFNLDDTEVALLQAVLLMSSDRPGLACVERIEKYQDSFLLAFEHYINYRKHHVTHFWPKLLMKVTDLRMIGACHASRFLHMKVECPTELFPPLFLEVFED
modifications: 35S-methionine label

binding [2]: binds
B2: human TRα1, in vitro translated (receptor, UniProt P10827-2 1-410)
chain: MEQKPSKVECGSDPEENSARSPDGKRKRKNGQCSLKTSMSGYIPSYLDKDEQCVVCGDKATGYHYRCITCEGCKGFFRRTIQKNLHPTYSCKYDSCCVIDKITRNQCQLCRFKKCIAVGMAMDLVLDDSKRVAKRKLIEQNRERRRKEEMIRSLQQRPEPTPEEWDLIHIATEAHRSTNAQGSHWKQRRKFLPDDIGQSPIVSMPDGDKVDLEAFSEFTKIITPAITRVVDFAKKLPMFSELPCEDQIILLKGCCMEIMSLRAAVRYDPESDTLTLSGEMAVKREQLKNGGLGVVSDAIFELGKSLSAFNLDDTEVALLQAVLLMSTDRSGLLCVDKIEKSQEAYLLAFEHYVNHRKHNIPHFWPKLLMKVTDLRMIGACHASRFLHMKVECPTELFPPLFLEVFEDQEV
modifications: 35S label
